Experimental data: patent US20250186451A1, “METHODS OF TREATING CANCER WITH IAP ANTAGONIST COMPOUNDS AND COMBINATION THERAPIES” (Otsuka Pharmaceutical Co., Ltd., priority 2022, published 2025)
At least one compound was matched to its structure with a doubt left.

Tested on: PF382 cells
Experiment: Flow cytometry: annexin V/DAPI apoptosis and bead-based absolute cell count, PF382
Design: species or system human
Conditions: single agents or combination Compound I:DEX 1:1

C[C@@H]1C[C@H]2[C@@H]3CCC4=CC(=O)C=C[C@]4(C)[C@@]3(F)[C@@H](O)C[C@]2(C)[C@@]1(O)C(=O)CO [DEX, dexamethasone, reference compound]
apoptosis induction: no apoptosis induction
